Experimental data from PubChem BioAssay AID540256 (National Center for Advancing Translational Sciences (NCATS), 2011).
Among all 300,000 compounds or so, about 3,700 (1.2%) were called active. Inconclusive results, whose numbers are uncertain, are shown with a selection of clear calls. Calls come from the whole dose curve; tested in HEK293 cells. Potencies of inconclusive entries are doubtful fits and often do not repeat.

Test: qHTS for Inhibitors of binding or entry into cells for Lassa Virus; note: nearly all actives have a fitted effect of over 50% in size
Conditions: Lassa virus pseudotype entry inhibition, cell reporter; activity change, negative = inhibition: at 37.9 µM (top of the series) unless noted
% is set by controls: 0 for no effect and ±100 for the full control effect; potency is the fitted concentration of half-maximal effect.

Row | Structure (SMILES) | Potency | activity change, negative = inhibition
1 | NC[C@H]1O[C@@H](n2cnc3c(N)ncnc32)[C@H](O)[C@@H]1O | inconclusive: 0.184 µM [activator, full curve] | –
2 | COc1ccccc1C(=O)Nc1ccc2nc(SCC(=O)N(C)c3ccccc3)sc2c1 | inconclusive: 35.5 µM [inhibitor, single point] | –
3 | OCCN1CCN(c2ncnc3sc(-c4ccccc4)cc23)CC1 | inconclusive: 8.91 µM [inhibitor, partial curve, poor fit] | –
4 | CC1CC(C)CN(C(=O)CSc2nnc(-c3ccco3)o2)C1 (stereo not drawn) | – | inactive: 15.1%
5 | CC1CCN(C(=O)CSc2n[nH]c(-c3ccc(F)cc3)n2)CC1 | inconclusive: 10 µM [inhibitor, partial curve, poor fit] | –
6 | CCc1ccc(-n2nnc(-c3nc(-c4cccs4)no3)c2N)cc1 | inconclusive: 5.62 µM [activator, single point] | –
7 | CC(C)OC(=O)c1ccc(Cn2nnc3sc4c(c3c2=O)CCCC4)cc1 | – | inactive: 6.08% [at 46.1 µM]
8 | COc1ccc2c(c1)c1nnc(SCC(=O)NC3CC3)nc1n2C | inconclusive: 1.12 µM [inhibitor, full curve, poor fit] | –
9 | Cc1ccc(OCc2nc(-c3ccccc3)no2)c(C)c1 | inconclusive: 1.41 µM [activator, partial curve, poor fit] | –
10 | O=C(CSc1nnc(-c2ccc(O)cc2)o1)N1CCOCC1 | inconclusive: 18.3 µM [activator, partial curve] | –
11 | O=C(c1cc(-c2ccccc2)nc2ccccc12)N1N=C(C(F)F)CC1(O)C(F)F (stereo not drawn) | inconclusive: 0.103 µM [activator, full curve, poor fit] | –
12 | Cc1cc(C)c(O)c(-c2cc(C(=O)NCCc3ccc(S(N)(=O)=O)cc3)[nH]n2)c1 | inconclusive: 35.5 µM [inhibitor, single point] | –
13 | Cn1ncc2c(Nc3cc(C(F)(F)F)ccc3Cl)ncnc21 | inconclusive: 3.55 µM [activator, partial curve, poor fit] | –
14 | O=C(NC(=S)Nc1ccc2nc[nH]c2c1)c1ccccc1 | inconclusive: 35.5 µM [inhibitor, single point] | –
15 | Cc1ccccc1CN1CCN(Cc2ccccc2C(F)(F)F)CC1 | inconclusive: 1.83 µM [inhibitor, partial curve, poor fit] | –
16 | O=C(Nc1nonc1-c1ccc(Cl)cc1)c1ccccc1 | – | inactive: -10.1%
17 | Cc1cccc(CNC(=O)Cn2c(-c3cccs3)cc3ccccc32)c1 | – | inactive: -1.07% [at 46.1 µM]
18 | COc1ccc(NC(=O)c2c(C)oc3ccc(O)c(CN4CCC(C)CC4)c23)cc1Cl | inconclusive: 14.1 µM [inhibitor, partial curve, poor fit] | –
19 | O=C(Nc1ccc(Cc2ccncc2)cc1)c1ccc([N+](=O)[O-])o1 | inconclusive: 35.5 µM [inhibitor, single point] | –
20 | O=C(CSc1nc(-c2ccccc2)nn1C(=O)c1ccccc1)Nc1cccc([N+](=O)[O-])c1 | inconclusive: 13 µM [inhibitor, partial curve, poor fit] | –
21 | COc1cccc(C2=CC(c3cc(OC)ccc3OC)n3nnnc3N2)c1 (stereo not drawn) | inconclusive: 10 µM [inhibitor, partial curve, poor fit] | –
22 | O=C(Nc1cccnc1)c1cccc(F)c1 | inconclusive: 0.1 µM [activator, full curve, poor fit] | –

Shown with tabs: part of the list above.
Row	Structure (SMILES)	Potency	activity change, negative = inhibition
3	OCCN1CCN(c2ncnc3sc(-c4ccccc4)cc23)CC1	inconclusive: 8.91 µM [inhibitor, partial curve, poor fit]	–
4	CC1CC(C)CN(C(=O)CSc2nnc(-c3ccco3)o2)C1 (stereo not drawn)	–	inactive: 15.1%

(next part)

Row | Structure (SMILES) | Potency | activity change, negative = inhibition
23 | COC(=O)CSc1ncc2c(n1)-c1ccccc1N(Cc1ccc(Cl)cc1)S2(=O)=O | – | inactive: -1% [at 46.1 µM]
24 | COc1ccc(CNc2ncnc3c2nc2n3CCCC2)cc1 | inconclusive: 22.4 µM [inhibitor, single point] | –
25 | CC(=O)c1ccc(NC(=O)COC(=O)c2ccc(F)cc2F)cc1 | – | inactive: 7.52%
26 | Cc1ccc2oc(-c3cccc(N)c3)nc2c1 | inconclusive: 25.1 µM [inhibitor, single point] | –
27 | COc1ccc(C(=O)NC(=S)N(CCC(C)C)c2c(N)n(Cc3ccccc3)c(=O)[nH]c2=O)cc1 | inconclusive: 10 µM [inhibitor, partial curve, poor fit] | –
28 | Oc1ccc(Cl)cc1C1=Nc2ccccc2N=C(c2ccccc2)C1 | – | inactive: 1.34% [at 46.1 µM]
29 | CC(C)C(NC(=O)CCNC(=O)c1ccc(C(C)(C)C)cc1)c1nc2ccccc2[nH]1 (stereo not drawn) | inconclusive: 35.5 µM [inhibitor, partial curve, poor fit] | –
30 | CCOc1ccc(CCNC(=O)c2ccc(OCc3c(C)noc3C)cc2)cc1OCC | inconclusive: 10 µM [inhibitor, partial curve] | –
31 | CCOC(=O)C1=C(C)NC2=C(C1c1ccc([N+](=O)[O-])cc1)S(=O)(=O)c1ccccc12 (stereo not drawn) | inconclusive: 29.1 µM [inhibitor, single point] | –
32 | CCOc1ccc(CN2CCN(C(=O)c3ccccc3)CC2)cc1 | – | inactive: -1.55%
33 | Fc1ccccc1Cc1noc(CN2CCN(c3ccc(Cl)cn3)CC2)n1 | inconclusive: 12.6 µM [inhibitor, partial curve, poor fit] | –
34 | CC1CCCCN1C(=O)CSc1ccc(-c2ccc(F)cc2)nn1 (stereo not drawn) | – | inactive: 15.3%
35 | CCN(CC)c1ccc(NC2CC(=O)N(CCc3ccc(OC)cc3)C2=O)cc1 (stereo not drawn) | – | inactive: -11.1%
36 | COc1cc(OC)cc(C(=O)NC(=S)NNC(=O)c2cnccn2)c1 | inconclusive: 35.5 µM [inhibitor, single point] | –
37 | COC(=O)CC(NS(=O)(=O)c1cccs1)c1ccccc1Cl (stereo not drawn) | inconclusive: 2.31 µM [inhibitor, partial curve, poor fit] | –
38 | N#CCC(=O)NN=C1CCCCCCCCCCC1 | inconclusive: 3.26 µM [activator, single point] | –
39 | CCOC(=O)N/N=C/c1c(C)nn(-c2cccc(C(F)(F)F)c2)c1Cl | active: 7.08 µM | –
40 | CCOC(=O)c1cnc2cc(C(F)(F)F)ccc2c1Nc1ccc(F)cc1F | – | inactive: 11.4% [at 46.1 µM]
41 | CC(C)(C)C(=O)Nc1ccc(-c2nc3ccc(NC(=O)C(C)(C)C)cc3[nH]2)cc1 | – | inactive: -23.2% [at 46.1 µM]
42 | CCOc1ccc(-c2c[n+]3c(n2-c2ccccc2)CCCCC3)cc1 | inconclusive: 18.4 µM [inhibitor, single point] | –
43 | COCCCNC(=O)C(F)(F)C(F)(F)C(=O)NCCCOC | inconclusive: 7.08 µM [activator, partial curve, poor fit] | –
